According to patent publication US20170198050A1 (INHIBRX, published 2017):
No constants are given. Whether binding was seen depends on the method and setting. Some entries that bind do so weakly or less than the wild type.

Protein sequences, listed by entry. Tags and fused reporters are not part of them. Lines headed by an entry give the natural chain unless they say otherwise; changes in a name come on top. Residues count along the entry.
UniProt A9YYE7: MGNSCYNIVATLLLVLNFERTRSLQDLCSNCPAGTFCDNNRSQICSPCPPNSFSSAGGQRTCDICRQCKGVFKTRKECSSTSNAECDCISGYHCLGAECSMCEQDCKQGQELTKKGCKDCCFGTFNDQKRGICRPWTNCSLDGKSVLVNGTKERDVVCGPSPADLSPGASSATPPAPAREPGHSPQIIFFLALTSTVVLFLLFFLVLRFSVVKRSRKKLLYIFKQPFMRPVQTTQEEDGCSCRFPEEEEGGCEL
cynomolgus monkey 41BB expressed on the cell surface: residues 24-254 of A9YYE7
recombinant cynomolgus 41BB-mFc fusion protein: residues 24-186 of A9YYE7
UniProt Q9NZQ7, residues 19-290: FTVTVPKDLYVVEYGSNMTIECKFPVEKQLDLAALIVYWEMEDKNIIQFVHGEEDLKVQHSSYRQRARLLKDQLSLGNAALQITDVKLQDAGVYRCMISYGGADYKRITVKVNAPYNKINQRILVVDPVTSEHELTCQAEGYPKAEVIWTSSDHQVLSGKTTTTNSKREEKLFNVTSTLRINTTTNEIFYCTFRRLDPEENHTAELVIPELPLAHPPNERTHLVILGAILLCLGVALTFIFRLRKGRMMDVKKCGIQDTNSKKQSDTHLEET
UniProt Q07011, residues 24-255: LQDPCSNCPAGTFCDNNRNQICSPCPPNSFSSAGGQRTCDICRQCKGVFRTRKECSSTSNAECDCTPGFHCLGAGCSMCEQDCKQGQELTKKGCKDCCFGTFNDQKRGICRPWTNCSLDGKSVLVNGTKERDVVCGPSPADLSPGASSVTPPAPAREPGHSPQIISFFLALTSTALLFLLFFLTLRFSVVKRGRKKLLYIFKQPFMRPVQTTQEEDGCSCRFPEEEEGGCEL

Legend:
[1] = target: recombinant cynomolgus 41BB-mFc fusion protein (cynomolgus monkey) (UniProt A9YYE7); experiment: ELISA, recombinant 41BB-mFc immobilized on Medisorp plate
[2] = target: recombinant cynomolgus 41BB-mFc fusion protein (cynomolgus monkey) (UniProt A9YYE7); experiment: ELISA, recombinant 41BB-mFc immobilized on Medisorp plate (FIG. 4)
[3] = target: cell surface PDL1 (species not stated) (UniProt Q9NZQ7); experiment: flow cytometry on PDL1 expressing CHO cells
[4] = target: cell surface PDL1 (species not stated) (UniProt Q9NZQ7); experiment: flow cytometry on PDL1 expressing CHO cells (FIG. 7A)
[5] = target: cynomolgus monkey 41BB expressed on the cell surface (cynomolgus monkey) (UniProt A9YYE7); experiment: flow cytometry on 41BB expressing 293freestyle cells
[6] = target: cell surface 41BB (species not stated) (UniProt Q07011); experiment: flow cytometry on CHO cells expressing the given TNFRSF member
[7] = target: cell surface 41BB (species not stated) (UniProt Q07011); experiment: flow cytometry on CHO cells expressing the given TNFRSF member (FIG. 10)
[8] = target: cell surface PDL1 (species not stated) (UniProt Q9NZQ7); experiment: flow cytometry on PDL1-expressing CHO cells

B1: 1H1 (VHH)
VHH: QVQLVQSGGGLVQPGGSLRLSCAASGFTFDDHAMSWVRQAPGKGLEWVSAISWNGHYTYYAESMKGRFAISRDNAKNTLYLQMNSLKSEDTAVYYCVKGWRGSYTRDRPFASWGQGTQV
notes: also called 41BB-targeting single domain antibody 1H1
In the case of B1, the binding [1] is reported as “binds”.

B2: 4H04 (VHH)
VHH: QVQLQESGGGLVQAGDSLRLSCAASGWAFDNYGMAWFRQAPGKEREFIGRLAWNGGSTDYADSVKGRFTISRDNPKNTLYLQMNNLKPEDTAVYYCARQRSYSGYGIRTPQTYDYWGQGTQVT
notes: also called 4H4
For B2, the binding [1] was “binds” and the binding [2] was “binds”.

B3: 4E01 (VHH)
VHH: QVQLQQSGGGLVQAGDSLRLSCAASGWAFGNYGMAWFRRAPGKEREFIGRLAWNGGSTDYVDSVKGRFTISRDNPKNTLYLQMNNLKPDDTAVYYCARQRSYSRYDIRTPQTYDYWGQGTQVT
notes: also called 4E1
With B3 the binding [1] was “binds”.

B4: 4F5 (VHH)
VHH: QVQLVQSGGGLVQPGGSLRLSCAASGWAFDNYGMAWFRQAPGKEREFIGRLAWNGGSTDYADSVKGRFTISRDNPKNTLYLQMNSLKPEDTAVYYCARQRSYSRYGIRAPQTYDYWGQGTQVT
notes: also called 4F05
B4 was tested, and the binding [1] was “binds”.

B5: 1H8 (VHH)
VHH: EVQLVQSGGGLVQPGGSLRLSCAASGFTFSSYYMSWVRQAPGKGLEWVSTISTNTGGGSTYYAYADSVKGRFTISRDNAKNTLYLEMNSLKPEDTAQYYCVRTRWEGVYDYWGLGTQV
notes: also called 41BB-targeting single domain antibody 1H8
For B5, the binding [1] was “binds”.

B6: RH3 (VHH)
VHH: QVQLQESGGGLVQPGGSLRLSCAVSGFSFSINAMGWYRQAPGKRREFLAAIDSGRNTVYAVSVKGRFTISRDNAKNTVYLQMNSLKPEDTAIYYCGLLKGNRVVSPSVAYWGQGTQVT
notes: also called RH03
In the case of B6, the binding [2] is reported as “binds”.

B7: 1G3 (VHH)
VHH: QVQLVQSGGGLVQPGGSLRLSCAASGFTFSSYAMSWVRQAPGKGLEWVSAIPAGDGSTKYADSVKGRFTISRDNAKNTVYLQMDSLKPEDTAVYFCAKSRGWSTVDDMDYWGKGTQV
notes: also called 41BB-targeting single domain antibody 1G3
In the case of B7, the binding [1] is reported as “binds”.

B8: 1H4 (VHH)
VHH: QVQLVQSGGGLVQPGGSLRLSCVVSGFTFRSYAMSWVRQAPGKGLEWVSTINSGESSTKYADSVKGRFTISRDDAKNTLYLQMSDLKPEDTAVYFCAKHRGWSTVDDINYWGKGTQV
notes: also called 41BB-targeting single domain antibody 1H4
For B8, the binding [1] was “binds”.

B9: 28A10 (VHH)
VHH: QVQLQESGGGLVQAGGSLRLACTTSGGIFNIRPISWYRQPPGMQREWVATIAFGGATNYANSIKGRFTASRDNAKNTVYLQMNGLKPEDTAVYYCNAFEIWGQGTQVTV
With B9 the binding [3] was “binds” and the binding [4] was “binds”.

B10: hzRH3v5-1 (VHH)
VHH: EVQLLESGGGEVQPGGSLRLSCAASGFSFSINAMGWYRQAPGKRREFVAAIESGRNTVYAESVKGRFTISRDNAKNTVYLQMSSLRAEDTAVYYCGLLKGNRVVSPSVAYWGQGTLVTVKP
For B10, the binding [5] was “binds”, the binding [6] was “binds” and the binding [7] was “binds”.

B11: hzRH3v9 (VHH)
VHH: EVQLLESGGGEVQPGGSLRLSCAASGFSFSINAMGWYRQAPGKGREFVAAIESGRNTVYAESVKGRFTISRDNAKNTVYLQMSSLRAEDTAVYYCGLLKGNRVVSPSVAYWGQGTLVTVKP
In the case of B11, the binding [5] is reported as “binds”.

B12: hz28A2v4-1 (VHH)
VHH: EVQLLESGGGEVQPGGSLRLSCAASGGIFAIKPISWYRQAPGKQREWVTTTTSSGATNYAESVKGRFTISRDNAKNTVYLQMSSLRAEDTAVYYCNVFEYWGQGTLVTVKP
For B12, the binding [8] was “binds”.
